Earlier results in patent US6613797B2, “Xanthone analogs for treating infectious diseases and complexation of heme and porphyrins” (Interlab, Inc., priority 1999, dated 2003).
Some results were stated once for a whole list of compounds, not compound by compound. At least one compound was matched to its structure with a doubt left.

Tested on: Leishmania donovani
Conditions: reported by Grögl et al. (1992); cited from earlier work

## O.O.O.O.O.O.O.O.O.O=C([O-])[C@@H]1[O][Sb](=[O])([O][Sb]2(=[O])[O][C@H]([C@H](O)CO)[C@H](O)[C@H](C(=O)[O-])[O]2)[O][C@H]([C@H](O)CO)[C@@H]1O.[Na+].[Na+].[Na+] (stereo partly shown) [Pentostam]
  IC50, anti-leishmanial drugs: 100 to 2000 µg/mL
